Source: patent US8394969B2, “Cyclic benzimidazole derivatives useful as anti-diabetic agents” (Merck Sharp & Dohme Corp., priority 2008, dated 2013)
Where a name gives a salt, the structure may show the parent alone. Some of these results come from one statement about several compounds together.

Amino acid sequences for entries named in this document (tags omitted). A change or cut given only in a name is not applied to a line headed by its entry.
UniProt Q13131: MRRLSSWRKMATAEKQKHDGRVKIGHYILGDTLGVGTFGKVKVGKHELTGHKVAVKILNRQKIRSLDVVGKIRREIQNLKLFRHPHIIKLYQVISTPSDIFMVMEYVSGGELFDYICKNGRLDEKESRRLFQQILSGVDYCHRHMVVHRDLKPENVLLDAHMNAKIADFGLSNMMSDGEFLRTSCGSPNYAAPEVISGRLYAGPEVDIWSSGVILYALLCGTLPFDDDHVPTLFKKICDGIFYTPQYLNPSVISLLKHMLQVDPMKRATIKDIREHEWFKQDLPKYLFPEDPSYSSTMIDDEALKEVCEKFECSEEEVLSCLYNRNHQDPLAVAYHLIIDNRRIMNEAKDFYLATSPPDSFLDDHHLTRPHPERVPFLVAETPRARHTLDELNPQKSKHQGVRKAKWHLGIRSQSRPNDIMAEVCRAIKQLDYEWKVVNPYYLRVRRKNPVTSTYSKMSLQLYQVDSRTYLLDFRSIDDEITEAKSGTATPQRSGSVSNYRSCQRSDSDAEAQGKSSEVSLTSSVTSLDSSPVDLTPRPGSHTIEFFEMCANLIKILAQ
UniProt Q9Y478: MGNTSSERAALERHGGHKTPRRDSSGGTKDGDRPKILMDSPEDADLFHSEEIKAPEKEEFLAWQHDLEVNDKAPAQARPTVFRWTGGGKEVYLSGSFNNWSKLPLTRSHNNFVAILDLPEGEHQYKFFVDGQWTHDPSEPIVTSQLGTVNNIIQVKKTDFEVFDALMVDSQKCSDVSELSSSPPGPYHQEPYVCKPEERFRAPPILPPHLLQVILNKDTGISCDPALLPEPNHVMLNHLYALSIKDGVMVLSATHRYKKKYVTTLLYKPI

Target: recombinant human AMPK complex 1 (containing α1β1γ1) (Homo sapiens, UniProt Q13131+Q9Y478)
Experiment: […] (in vitro AMPK activation assay)
Type: biochemical
Details: recombinant human AMPK complex 1 (α1β1γ1); for % Maximum AMP Activation of human AMPK Complex 1: basal activity subtracted

**Q.** How did the EC50 turn out when Cc1ccc(Oc2nc3cc(C#CC4CCCC4O)c(Cl)cc3[nH]2)cc1C(=O)O (centres unmarked) [Example 130, 5-[6-Chloro-5-(2-hydroxy-cyclopentylethynyl)-1H-benzoimidazol-2-yloxy]-2-methyl-benzoic acid] was run?
**A.** < 10 µM

**Q.** For Cc1ccc(Oc2nc3cc(C#Cc4cccnc4)c(Cl)cc3[nH]2)cc1C(=O)O [Example 131, 5-(6-Chloro-5-pyridin-3-ylethynyl-1H-benzoimidazol-2-yloxy)-2-methyl-benzoic acid], which EC50 is on record?
**A.** < 10 µM

**Q.** Which EC50 does the source give for Cc1ccc(C#Cc2cc3nc(Oc4ccc(C)c(C(=O)O)c4)[nH]c3cc2Cl)cn1 [Example 132, 5-[6-Chloro-5-(6-methyl-pyridin-3-ylethynyl)-1H-benzoimidazol-2-yloxy]-2-methyl-benzoic acid] here?
**A.** < 10 µM

**Q.** With COC(=O)c1cc(Oc2nc3cc(C#Cc4cccnc4)c(Cl)cc3[nH]2)ccc1C [Example 133, 5-(6-Chloro-5-pyridin-3-ylethynyl-1H-benzoimidazol-2-yloxy)-2-methyl-benzoic acid methyl ester] as the compound, how does the EC50 read?
**A.** < 10 µM

**Q.** Cc1ccc(Oc2nc3cc(C#Cc4cncn4C)c(Cl)cc3[nH]2)cc1C(=O)O [Example 134, 5-[6-Chloro-5-(3-methyl-3H-imidazol-4-ylethynyl)-1H-benzoimidazol-2-yloxy]-2-methyl-benzoic acid] was tested. Which EC50 did it give?
**A.** < 10 µM

**Q.** For Cc1ccc(Oc2nc3cc(C#CC4(O)CCCC4)c(Cl)cc3[nH]2)cc1C(=O)O [Example 135, 5[6-Chloro-5-(1-hydroxy-cyclopentylethynyl)-1H-benzoimidazol-2-yloxy]-2-methyl-benzoic acid], which EC50 is on record?
**A.** < 10 µM

**Q.** With COC(=O)c1cc(Oc2nc3cc(C#Cc4cncn4C)c(Cl)cc3[nH]2)ccc1C [Example 136, 5-[6-Chloro-5-(3-methyl-3H-imidazol-4-ylethynyl)-1H-benzoimidazol-2-yloxy]-2-methyl-benzoic acid methyl ester] as the compound, how does the EC50 read?
**A.** < 10 µM

**Q.** For COC(=O)c1cc(Oc2nc3cc(C#CC4(O)CCCC4)c(Cl)cc3[nH]2)ccc1C [Example 137, 5-[6-Chloro-5-(1-hydroxy-cyclopentylethynyl)-1H-benzoimidazol-2-yloxy]-2-methyl-benzoic acid methyl ester], which EC50 is on record?
**A.** < 10 µM

**Q.** For Cc1ccc(Oc2nc3cc(C#CC4CCNC4)c(Cl)cc3[nH]2)cc1C(=O)O (centres unmarked) [Example 138, 5-(6-Chloro-5-pyrrolidin-3-ylethynyl-1H-benzoimidazol-2-yloxy)-2-methyl-benzoic acid], which EC50 is on record?
**A.** < 10 µM

**Q.** Which EC50 does the source give for O=C(O)c1cccc(Nc2nc3cc(C#Cc4ccccc4)c(Cl)cc3[nH]2)c1 [Example 139, 3-(6-Chloro-5-phenylethynyl-1H-benzoimidazol-2-ylamino)-benzoic acid] here?
**A.** < 10 µM

**Q.** With Cc1ccc(Oc2nc3cc(-c4ccc5[nH]cnc5c4)c(Cl)cc3[nH]2)cc1C(=O)O [Example 140, 2-(3-Carboxy-4-methyl-phenoxy)-6-chloro-1H,1′H-[5,5′]bibenzoimidazolyl-3-ium; chloride] as the compound, how does the EC50 read?
**A.** < 10 µM

**Q.** With Cc1ccc(Oc2nc3cc(-c4ccc5onc(C)c5c4)c(Cl)cc3[nH]2)cc1C(=O)O [Example 141, 5-[6-Chloro-5-(3-methyl-benzo[d]isoxazol-5-yl)-1H-benzoimidazol-2-yloxy]-2-methyl-benzoic acid] as the compound, how does the EC50 read?
**A.** < 10 µM

**Q.** For Cc1ccc(Oc2nc3cc(-c4ccc5c(cnn5C)c4)c(Cl)cc3[nH]2)cc1C(=O)O [Example 142, 5-[6-Chloro-5-(1-methyl-1H-indazol-5-yl)-1H-benzoimidazol-2-yloxy]-2-methyl-benzoic acid], which EC50 is on record?
**A.** < 10 µM

**Q.** For Cc1ccc(Oc2nc3cc(-c4cnc5c(c4)OCCN5C)c(Cl)cc3[nH]2)cc1C(=O)O [Example 143, 2-(3-carboxy-4-methylphenoxy)-6-chloro-5-(4-methyl-3,4-dihydro-2H-pyrido[3,2-b] [1,4]oxazin-7-yl)-1H-3,1-benzimidazol-3-ium trifluoroacetate], which EC50 is on record?
**A.** < 10 µM

**Q.** With Cc1ccc(Oc2nc3cc(-c4cnc5c(ccn5C)c4)c(Cl)cc3[nH]2)cc1C(=O)O [Example 144, 2-(3-carboxy-4-methylphenoxy)-6-chloro-5-(1-methyl-1H-pyrrolo[2,3-b]pyridin-5-yl)-1H-3,1-benzimidazol-3-ium chloride] as the compound, how does the EC50 read?
**A.** < 10 µM

**Q.** How did the EC50 turn out when COc1ccc2cc(-c3cc4nc(Oc5ccc(C)c(C(=O)O)c5)[nH]c4cc3Cl)ccc2c1 [Example 145, 5-[6-Chloro-5-(6-methoxy-naphthalen-2-yl)-1H-benzoimidazol-2-yloxy]-2-methyl-benzoic acid] was run?
**A.** < 10 µM

**Q.** Which EC50 does the source give for COc1ccc2cc(-c3cc4nc(Oc5ccc(C)c(C(=O)O)c5)[nH]c4cc3Cl)ccc2n1 [Example 146, 5-[6-Chloro-5-(2-methoxy-quinolin-6-yl)-1H-benzoimidazol-2-yloxy]-2-methyl-benzoic acid] here?
**A.** < 10 µM

**Q.** Which EC50 does the source give for Cc1ccc(Oc2nc3cc(-c4ccc5c(c4)[nH]c4ccccc45)c(Cl)cc3[nH]2)cc1C(=O)O [Example 147, 5-[5-(9H-Carbazol-2 yl)-6-chloro-1H-benzoimidazol-2-yloxy]-2-methyl-benzoic acid] here?
**A.** < 10 µM

**Q.** How did the EC50 turn out when Cc1ccc(Oc2nc3cc(-c4cnc5ccccc5c4)c(Cl)cc3[nH]2)cc1C(=O)O [Example 148, 2-(3-carboxy-4-methylphenoxy)-6-chloro-5-quinolin-3-yl-1H-3,1-benzimidazol-3-ium chloride] was run?
**A.** < 10 µM

**Q.** Cc1ccc(Oc2nc3cc(-c4ccc5nnn(C)c5c4)c(Cl)cc3[nH]2)cc1C(=O)O [Example 149, 5-[6-Chloro-5-(3-methyl-3H-benzotriazol-5-yl)-1H-benzoimidazol-2-yloxy]-2-methyl-benzoic acid] was tested. Which EC50 did it give?
**A.** < 10 µM

**Q.** How did the EC50 turn out when Cc1ccc(Oc2nc3cc(-c4ccc5ncccc5c4)c(Cl)cc3[nH]2)cc1C(=O)O [Example 150, 2-(3-carboxy-4-methylphenoxy)-6-chloro-5-quinolin-6-yl-1H-3,1-benzimidazol-3-ium chloride] was run?
**A.** < 10 µM

**Q.** For Cc1ccc(Oc2nc3cc(-c4ccc5c(c4)OCCN5C)c(Cl)cc3[nH]2)cc1C(=O)O [Example 151, 2-(3-carboxy-4-methylphenoxy)-6-chloro-5-(4-methyl-3,4-dihydro-2H-1,4-benzoxazin-7-yl)-1H-3,1-benzimidazol-3-ium chloride], which EC50 is on record?
**A.** < 10 µM

**Q.** Cc1ccc(Oc2nc3cc(-c4ccc5nncn5c4)c(Cl)cc3[nH]2)cc1C(=O)O [Example 152, 5-(6-Chloro-5-[1,2,4]triazolo[4,3-a]pyridin-6-yl-1H-benzoimidazol-2-yloxy)-2-methyl-benzoic acid] was tested. Which EC50 did it give?
**A.** < 10 µM

**Q.** With Cc1ccc(Oc2nc3cc(-c4ccc5[nH]ncc5c4)c(Cl)cc3[nH]2)cc1C(=O)O [Example 153, 5-[6-Chloro-5-(1H-indazol-5-yl)-1H-benzoimidazol-2-yloxy]-2-methyl-benzoic acid] as the compound, how does the EC50 read?
**A.** < 10 µM

**Q.** With Cc1ccc(Oc2nc3cc(C#CC(C)(C)O)c(Cl)cc3[nH]2)cc1C(=O)O [Example 154, 5-[6-Chloro-5-(3-hydroxy-3-methyl-but-1-ynyl)-1H-benzoimidazol-2-yloxy]-2-methyl-benzoic acid] as the compound, how does the EC50 read?
**A.** < 10 µM

**Q.** With Cc1ccc(Oc2nc3cc(-c4ccc(C(C)(C)O)cc4)c(Cl)cc3[nH]2)cc1C(=O)O [Example 155, 5-{6-Chloro-5-[4-(1-hydroxy-1-methyl-ethyl)-phenyl]-1H-benzoimidazol-2-yloxy}-2-methyl-benzoic acid] as the compound, how does the EC50 read?
**A.** < 10 µM

**Q.** What about the “% Maximum AMP Activation of human AMPK Complex 1” value of the same compound?
**A.** greater than 80%

**Q.** Cc1ccc(Oc2nc3cc(-c4ccc(C(C)O)cc4)c(Cl)cc3[nH]2)cc1C(=O)O (centres unmarked) [Example 156, 5-{6-Chloro-5-[4-(1-hydroxy-ethyl)-phenyl]-1H-benzoimidazol-2-yloxy}-2-methyl-benzoic acid] was tested. Which EC50 did it give?
**A.** < 10 µM

**Q.** With CC(=O)c1ccc(-c2cc3nc(Oc4ccc(C)c(C(=O)O)c4)[nH]c3cc2Cl)cc1 [Example 157, 5-{5-(4-Acetyl-phenyl)-6-chloro-1H-benzoimidazol-2-yloxy]-2-methyl-benzoic acid] as the compound, how does the EC50 read?
**A.** < 10 µM

**Q.** Which EC50 does the source give for Cc1ccc(Oc2nc3cc(C4=CCN(c5ncccn5)CC4)c(Cl)cc3[nH]2)cc1C(=O)O [Example 158, 2-(3-carboxy-4-methylphenoxy)-6-chloro-5-(1-pyrimidin-2-yl-1,2,3,6-tetrahydropyridin-4-yl)-1H-3,1-benzimidazol-3-ium trifluoroacetate] here?
**A.** < 10 µM

**Q.** For Cc1ccc(Oc2nc3cc(-c4cnn(CC(C)C)c4)c(Cl)cc3[nH]2)cc1C(=O)O [Example 159, 5-[6-Chloro-5-(1-isobutyl-1H-pyrazol-4-yl)-1H-benzoimidazol-2-yloxy]-2-methyl-benzoic acid], which EC50 is on record?
**A.** < 10 µM

**Q.** With Cc1ccc(Oc2nc3cc(-c4cn[nH]c4)c(Cl)cc3[nH]2)cc1C(=O)O [Example 160, 5-[6-Chloro-5-(1H-pyrazol-4-yl)-1H-benzoimidazol-2-yloxy]-2-methyl-benzoic acid] as the compound, how does the EC50 read?
**A.** < 10 µM

**Q.** Cc1ccc(Oc2nc3cc(-c4ccc(-c5ccc[n+]([O-])c5)cc4)c(Cl)cc3[nH]2)cc1C(=O)O [Example 161, 5-{6-Chloro-5-[4-(1-oxy-pyridin-3-yl)-phenyl]-1H-benzoimidazol-2-yloxy}-2-methyl-benzoic acid] was tested. Which EC50 did it give?
**A.** < 10 µM

**Q.** With Cc1ccc(Oc2nc3cc(-c4ccc(-c5ccc(=O)n(C(F)F)c5)cc4)c(Cl)cc3[nH]2)cc1C(=O)O [Example 162, 5-{6-Chloro-5-[4-(1-difluoromethyl-6-oxo-1,6-dihydro-pyridin-3-yl)-phenyl]1H-benzoimidazol-2-yloxy}-2-methyl-benzoic acid] as the compound, how does the EC50 read?
**A.** < 10 µM

**Q.** With COC(=O)c1cc(Oc2nc3cc(-c4ccc(-c5ccc(=O)n(C(F)F)c5)cc4)c(Cl)cc3[nH]2)ccc1C [Example 163, 5-{6-Chloro-5-[4-(1-difluoromethyl-6-oxo-1,6-dihydro-pyridin-3-yl)-phenyl]-1H-benzoimidazol-2-yloxy}-2-methyl-benzoic acid methyl ester] as the compound, how does the EC50 read?
**A.** < 10 µM

**Q.** For Cc1ccc(Oc2nc3cc(-c4ccc(-c5ccc(=O)n(C)c5)cc4)c(Cl)cc3[nH]2)cc1C(=O)O [Example 164, 5-{6-Chloro-5-[4-(1-methyl-6-oxo-1,6-dihydro-pyridin-3-yl)-phenyl]-1H-benzoimidazol-2-yloxy}-2-methyl-benzoic acid], which EC50 is on record?
**A.** < 10 µM

**Q.** What about the “% Maximum AMP Activation of human AMPK Complex 1” value of the same compound?
**A.** greater than 80%

**Q.** For COC(=O)c1cc(Oc2nc3cc(-c4ccc(-c5ccccn5)cc4)c(Cl)cc3[nH]2)ccc1C [Example 165, 5-[6-Chloro-5-(4-pyridin-2-yl-phenyl)-1H-benzoimidazol-2-yloxy]-2-methyl-benzoic acid methyl ester], which EC50 is on record?
**A.** < 10 µM
